Here are results for 19 compounds from PubChem BioAssay AID220 (DTP/NCI, 2004).

The test system of the test is CD8F1 mice, subcutaneous mammary adenocarcinoma, T/C%. Description: NCI In Vivo Anticancer Drug Screen. Data for tumor model Mammary Adenocarcinoma CD8F1 (subcutaneous) in CD8F1. Particulars: higher T/C = larger tumour. In outline: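 Ratio of treated to vehicle-control outcome, based on either survival or tumor size, in mice bearing transplantable tumors given the test compound.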

The mark [1] stands for this setting: T/C endpoint: median tumor weight (est.), dose: 200.0 mg/kg/injection, schedule: Q07DX005 (ip), vehicle: saline.
Setting [2] is: T/C endpoint: median tumor weight change, dose: 500.0 mg/kg/injection, schedule: Q01DX001 (ip), vehicle: saline with Tween-80.
[3] abbreviates: T/C endpoint: median tumor weight (est.), dose: 25.0 mg/kg/injection, schedule: Q07DX005 (ip), vehicle: Klucel (hydroxypropylcellulose) (HPC), evaluated on day 30.

The list is a part of this screen's results and no random one: it is rich in T/C values a quarter to a half above the control, in often repeated tests (any T/C) and in doses without a T/C. Other doses and runs of a compound stand elsewhere. T/C: endpoint of the treated group in % of that of the vehicle group. Schedule codes are those of the source, read here as Q, the interval in days (D) or hours (H), X, the number of doses. Some T/C values carry the count of animals alive at the toxicity check (mostly the fifth day); where none is given, no animal had died by that day. Some entries give survivors of the animals treated and no T/C: the source files T/C as zero there, which appears to mark a toxic dose or a test without result, not a measured value. Survivors were counted at the toxicity check, usually on the fifth day, unless a day is given; later deaths do not show. Some doses were run more than once; the results are listed from low to high.

For `Cc1c2ccccc2cc2cccc[n+]12`, the T/C (T/C endpoint: median tumor weight change, dose: 10.0 mg/kg/injection, schedule: Q01DX001 (ip), vehicle: saline, evaluated on day 32) was 136 % of control. Further, the survivor count is, setting by setting: (T/C endpoint: median tumor weight change, dose: 80.0 mg/kg/injection, schedule: Q01DX001 (ip), vehicle: saline) 4 of 10 on day 32; (T/C endpoint: median tumor weight change, dose: 100.0 mg/kg/injection, schedule: Q01DX001 (ip), vehicle: saline) 1 of 10 on day 29; (T/C endpoint: median tumor weight change, dose: 160.0 mg/kg/injection, schedule: Q01DX001 (ip), vehicle: saline) 0 of 10 on day 32; (T/C endpoint: median tumor weight change, dose: 200.0 mg/kg/injection, schedule: Q01DX001 (ip), vehicle: saline) 0 of 10 on day 29; (T/C endpoint: median tumor weight change, dose: 400.0 mg/kg/injection, schedule: Q01DX001 (ip), vehicle: saline) 0 of 10 on day 29; (T/C endpoint: median tumor weight change, dose: 800.0 mg/kg/injection, schedule: Q01DX001 (ip), vehicle: saline) 0 of 10 on day 29.
For the compound `CCCCCCCCCCCCCCCC(=O)Nc1ccn(C2OC(CO)C(O)C2O)c(=O)n1` (centres undefined), the survivor count under setting [1] is recorded as 6 of 10 on day 30.
Take `Cn1cnc([N+](=O)[O-])c1[Se]c1nc(N)nc2nc[nH]c12`: where the note is “T/C endpoint: median tumor weight (est.), dose: 100.0 mg/kg/injection, schedule: Q07DX005 (ip), vehicle: water, evaluated on day 30”, the T/C is 142 % of control.
As for `O=C1c2cccc3cc([N+](=O)[O-])cc(c23)C(=O)N1CCN1CCCC1`, the survivor count by setting is: (T/C endpoint: median tumor weight change, dose: 125.0 mg/kg/injection, schedule: Q01DX001 (ip), vehicle: saline with Tween-80) 2 of 10 on day 32; (T/C endpoint: median tumor weight change, dose: 225.0 mg/kg/injection, schedule: Q01DX001 (ip), vehicle: saline with Tween-80) 1 of 10 on day 26; (T/C endpoint: median tumor weight change, dose: 250.0 mg/kg/injection, schedule: Q01DX001 (ip), vehicle: saline with Tween-80) 0 of 10 on day 32; under setting [2], 0 of 10 on day 32.
For the compound `Nc1nc(N)c2cc(CNc3ccc(C(=O)NC(CC(=O)O)CC(=O)O)cc3)ccc2n1`, the survivor count is given as 0 of 10 on day 30 (T/C endpoint: median tumor weight (est.), dose: 200.0 mg/kg/injection, schedule: Q07DX005 (ip), vehicle: Klucel (hydroxypropylcellulose) (HPC)) and 0 of 10 on day 30 (T/C endpoint: median tumor weight (est.), dose: 400.0 mg/kg/injection, schedule: Q07DX005 (ip), vehicle: Klucel (hydroxypropylcellulose) (HPC)).
As for `C=C(C)[C@]12CC(C)C34OC(/C=C\C=C\CCCCCCCCC)(O[C@@H]1[C@@H]3[C@@H]1O[C@]1(CO)[C@@H](O)[C@]1(O)C(=O)C(C)=C[C@@H]41)O2` (some centres undefined), the survivor count is listed as 6 of 10 (T/C endpoint: median tumor weight (est.), dose: 3.0 mg/kg/injection, schedule: Q07DX002 (ip), vehicle: saline + alcohol); 1 of 10 (T/C endpoint: median tumor weight (est.), dose: 6.0 mg/kg/injection, schedule: Q07DX002 (ip), vehicle: saline + alcohol); 4 of 10 (T/C endpoint: median tumor weight (est.), dose: 12.0 mg/kg/injection, schedule: Q07DX002 (ip), vehicle: saline + alcohol).
Regarding `O=C(CCl)NC(Cc1ccc(N(CCCl)CCCl)cc1)C(=O)O` (centres undefined), the T/C reads like this: (T/C endpoint: median tumor weight (est.), dose: 2.0 mg/kg/injection, schedule: Q01DX001 (ip), vehicle: Klucel (hydroxypropylcellulose) (HPC), evaluated on day 32) 142 % of control; (T/C endpoint: median tumor weight (est.), dose: 4.0 mg/kg/injection, schedule: Q01DX001 (ip), vehicle: Klucel (hydroxypropylcellulose) (HPC), evaluated on day 30) 131 % of control. Besides, the survivor count (T/C endpoint: median tumor weight (est.), dose: 128.0 mg/kg/injection, schedule: Q01DX001 (ip), vehicle: Klucel (hydroxypropylcellulose) (HPC)) was 0 of 10 on day 30 and 1 of 10 on day 32; the survivor count (T/C endpoint: median tumor weight (est.), dose: 256.0 mg/kg/injection, schedule: Q01DX001 (ip), vehicle: Klucel (hydroxypropylcellulose) (HPC)) was 0 of 10 on day 30 and 0 of 10 on day 32.
For `CC(=O)NC(C=O)OCC=O` (centres undefined), the survivor count (T/C endpoint: median tumor weight change, dose: 1000.0 mg/kg/injection, schedule: Q01DX001 (ip), vehicle: water) was 0 of 10 on day 29.
`CC[C@H]1CN2CCc3cc(OC)c(OC)cc3[C@@H]2C[C@@H]1C[C@@H]1c2cc(OC)c(OC)cc2CCN1CCN(CCCl)CCCl`: the T/C was 136 % of control (T/C endpoint: mean tumor weight, dose: 2.5 mg/kg/injection, schedule: Q07DX006 (ip), vehicle: Klucel (hydroxypropylcellulose) (HPC), evaluated on day 43) and 140 % of control [9 of 10 alive] (T/C endpoint: mean tumor weight, dose: 20.0 mg/kg/injection, schedule: Q07DX005 (ip), vehicle: Klucel (hydroxypropylcellulose) (HPC), evaluated on day 31).
Turning to `Ic1ncnc2c1ncn2C1CCCO1` (centres undefined), under setting [3], the T/C is 131 % of control.
As for `CNc1nc(N(C)C)nc(N(C)C)n1`, the survivor count (T/C endpoint: median tumor weight (est.), dose: 37.0 mg/kg/injection, schedule: Q07DX005 (ip), vehicle: other) is 6 of 10.
As for `Cc1ncc([N+](=O)[O-])n1CCSC(N)=O`, the T/C is 132 % of control [9 of 10 alive] (T/C endpoint: median tumor weight (est.), dose: 50.0 mg/kg/injection, schedule: Q07DX005 (ip), vehicle: saline with Tween-80, evaluated on day 32); 139 % of control (T/C endpoint: median tumor weight (est.), dose: 100.0 mg/kg/injection, schedule: Q07DX005 (ip), vehicle: saline with Tween-80, evaluated on day 30); 128 % of control [9 of 10 alive] (T/C endpoint: median tumor weight (est.), dose: 400.0 mg/kg/injection, schedule: Q07DX005 (ip), vehicle: saline with Tween-80, evaluated on day 32).
On to `COc1cccc2c1C(=O)c1c(O)c3c(c(O)c1C2=O)C[C@@](O)(C(C)=O)C[C@@H]3OC1CC(N)C(O)C(C)O1` (some centres undefined), for which the T/C runs as follows: (T/C endpoint: median tumor weight (est.), dose: 0.8 mg/kg/injection, schedule: Q07DX005 (ip), vehicle: saline, evaluated on day 30) 139 % of control; (T/C endpoint: median tumor weight (est.), dose: 1.2 mg/kg/injection, schedule: Q07DX005 (ip), vehicle: water, evaluated on day 30) 141 % of control [9 of 10 alive]. Besides, the survivor count is, setting by setting: (T/C endpoint: median tumor weight (est.), dose: 4.0 mg/kg/injection, schedule: Q07DX005 (ip), vehicle: water) 5 of 10 on day 30; (T/C endpoint: median tumor weight (est.), dose: 8.0 mg/kg/injection, schedule: Q07DX005 (ip), vehicle: water) 1 of 10 on day 30; (T/C endpoint: median tumor weight (est.), dose: 16.0 mg/kg/injection, schedule: Q07DX005 (ip), vehicle: water) 0 of 10 on day 30; (T/C endpoint: median tumor weight (est.), dose: 32.0 mg/kg/injection, schedule: Q07DX005 (ip), vehicle: water) 0 of 10 on day 30.
On to `C[n+]1c(-c2cccc(OCCOCCOc3cccc(-c4c5cc(N)ccc5c5ccc(N)cc5[n+]4C)c3)c2)c2cc(N)ccc2c2ccc(N)cc21`, for which the T/C (T/C endpoint: median tumor weight change, dose: 20.0 mg/kg/injection, schedule: Q01DX001 (ip), vehicle: water, evaluated on day 41) was 139 % of control. For the same compound, the survivor count (T/C endpoint: median tumor weight change, dose: 80.0 mg/kg/injection, schedule: Q01DX001 (ip), vehicle: water) is on record as 6 of 10 on day 41.
Regarding `O=[N+]([O-])c1ccc(-n2[nH]nnc2=S)cc1`, for the setting “T/C endpoint: median tumor weight change, dose: 250.0 mg/kg/injection, schedule: Q01DX001 (ip), vehicle: saline with Tween-80, evaluated on day 29”, the T/C is 136 % of control. Further, the survivor count runs as follows: under setting [2], 1 of 10 on day 29 and 4 of 10 on day 32; (T/C endpoint: median tumor weight change, dose: 1000.0 mg/kg/injection, schedule: Q01DX001 (ip), vehicle: saline with Tween-80) 0 of 10 on day 29 and 0 of 10 on day 32; (T/C endpoint: median tumor weight change, dose: 2000.0 mg/kg/injection, schedule: Q01DX001 (ip), vehicle: saline with Tween-80) 0 of 10 on day 29 and 0 of 10 on day 32.
In the case of `CCN1C=C/C(=C\C=C/c2cc[n+](CC)c3ccccc23)c2ccccc21`, the T/C (T/C endpoint: median tumor weight (est.), dose: 0.5 mg/kg/injection, schedule: Q07DX005 (ip), vehicle: suspension in saline, evaluated on day 32) is 133 % of control [9 of 10 alive].
On to `CC1(C)CC(=O)C(CSC(=O)c2ccccc2)C(=O)C1`, for which the T/C (T/C endpoint: median tumor weight (est.), dose: 12.5 mg/kg/injection, schedule: Q07DX005 (ip), vehicle: Klucel (hydroxypropylcellulose) (HPC), evaluated on day 30) was 144 % of control and the T/C under setting [3] is 130 % of control [9 of 10 alive on day 30]. Further, under setting [1], the survivor count was 2 of 10 on day 30.
On to `N=C(N)Sc1ccccn1`, for which the T/C (T/C endpoint: median tumor weight (est.), dose: 100.0 mg/kg/injection, schedule: Q07DX005 (ip), vehicle: suspension in saline, evaluated on day 30) is 136 % of control.
Consider `C=C/C(C)=C/[C@H](C)C(=O)C[C@H](O)CC1CC(=O)NC(=O)C1`, for which the T/C is 125 % of control (T/C endpoint: median tumor weight (est.), dose: 25.0 mg/kg/injection, schedule: Q07DX005 (ip), vehicle: saline with Tween-80, evaluated on day 30) and 139 % of control (T/C endpoint: median tumor weight (est.), dose: 50.0 mg/kg/injection, schedule: Q07DX005 (ip), vehicle: saline with Tween-80, evaluated on day 30).
